{"sequences": {"note": "Sequences of proteins named here, by UniProt entry; tags and fusion partners are left off. A change or cut given only in a name is not applied to a line headed by its entry.", "UniProt C7C422": "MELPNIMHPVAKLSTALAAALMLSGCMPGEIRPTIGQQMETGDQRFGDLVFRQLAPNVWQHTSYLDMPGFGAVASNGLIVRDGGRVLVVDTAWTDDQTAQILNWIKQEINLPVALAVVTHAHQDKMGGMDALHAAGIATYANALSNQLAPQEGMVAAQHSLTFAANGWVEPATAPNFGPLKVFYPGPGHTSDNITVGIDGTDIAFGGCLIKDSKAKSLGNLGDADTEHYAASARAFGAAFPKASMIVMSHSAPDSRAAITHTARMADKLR"}, "source": "PubChem BioAssay AID1794845", "about": "(National Center for Advancing Translational Sciences (NCATS), 2023)", "note": "Hit rate of the full screen: of about 6,900 compounds, fewer than 10 were called active. Calls follow the shape of the dose curve; as a rule, active = well fitted curve in the direction sought with a large enough effect; inconclusive = small, poorly fitted or top-dose-only effect, or another doubt; inactive = no such curve, though single readings can be large or run the other way. The list shows a part of the results.", "data": [{"molecular_target": "Metallo-beta-lactamase type 2 (Klebsiella pneumoniae) (UniProt C7C422)", "test": "qHTS to identify inhibitors of the New Delhi Metallo-beta-lactamase (NDM): primary screen against the NCATS Gemini Collection; also: % of control where 0% means no effect", "conditions": "NDM-1 enzyme, meropenem hydrolysis, absorbance 300 nm; at 38.4 µM (top of the series) unless noted", "summary_of_the_method": "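NDM-1 at 2 nM final in 50 mM HEPES pH 7.0, 1 uM ZnSO4, 0.01% Tween20, preincubated >30 min with compound. Meropenem 50 uM final added; absorbance at 300 nm after 30 min.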", "values": [{"molecule": "CC(C)NC(=O)NC[C@H]1OC[C@@H](NCc2cnc[nH]2)[C@@H]1O", "activity % (negative = inhibition)": "inactive: -0.0066% [at 57.5 µM]"}, {"molecule": "O=C(c1ccccn1)N1CC(CO)C2(CCNCC2)C1", "note": "(stereo not drawn)", "activity % (negative = inhibition)": "inactive: 23.5%"}, {"molecule": "COCC1(C(=O)N2C[C@@H](C(=O)O)[C@H](c3ccccc3OC)C2)CCC1", "activity % (negative = inhibition)": "inactive: 7.28%"}, {"molecule": "CC(C)NC(=O)CN1C(=O)NC(c2ccc(Cl)cc2)C2=C1COC2=O", "note": "(stereo not drawn)", "activity % (negative = inhibition)": "inactive: 0.0502%"}, {"molecule": "CCOC(=O)N1CCC(Oc2cnc3c(ccn3-c3cncnc3)c2)CC1", "activity % (negative = inhibition)": "inactive: 37.7% [at 57.5 µM]"}, {"molecule": "O=C(O)CC1NCCNC1=O", "note": "(stereo not drawn)", "activity % (negative = inhibition)": "inactive: 22.3%"}, {"molecule": "CN1[C@@H](CCC(=O)N2CCN(c3ccccn3)CC2)CNC(=O)[C@@H]2[C@H]1CCN2Cc1ncc[nH]1", "activity % (negative = inhibition)": "inactive: 8.77%"}, {"molecule": "CNC(=O)c1ccc(NC(=O)c2nc(C(O)c3ccccc3F)oc2C)cc1", "note": "(stereo not drawn)", "activity % (negative = inhibition)": "inactive: 27.5% [at 57.5 µM]"}, {"molecule": "O=c1cc(-c2ccncc2)nc(-c2ccc(CN3CC[C@@H](O)C3)cc2)[nH]1", "activity % (negative = inhibition)": "inactive: 13%"}, {"molecule": "Cc1nc(CN2CCOc3cc([S+](=O)([O-])N(C)C)ccc3C2)cs1", "activity % (negative = inhibition)": "inactive: -0.929% [at 57.5 µM]"}, {"molecule": "COc1ccc(-n2ccnc2-c2cc3n(n2)CCCNC3)c(OC)c1", "activity % (negative = inhibition)": "inactive: 5.69%"}, {"molecule": "CNC(=O)[C@@H]1CN(C(=O)c2cc3cc(OC)ccc3[nH]2)C[C@H]1COC", "activity % (negative = inhibition)": "inactive: 9.91%"}, {"molecule": "O=C(NC[C@H]1O[C@@H](CO)[C@@H](O)[C@H]1N1CCCC1)c1ccc(F)c(Cl)c1", "activity % (negative = inhibition)": "inactive: 2.46% [at 57.5 µM]"}, {"molecule": "Cn1ncc(N2CCC(CNC(=O)CCN3CCCC3=O)C2)cc1=O", "note": "(stereo not drawn)", "activity % (negative = inhibition)": "inactive: 2.41%"}, {"molecule": "O=C(C1CCCC1)N1CCCC(c2noc(COc3ccccc3)n2)C1", "note": "(stereo not drawn)", "activity % (negative = inhibition)": "inactive: -3.59%"}, {"molecule": "Cc1ccsc1C(=O)N1CCN(c2cc(-c3cccs3)[nH]n2)CC1", "activity % (negative = inhibition)": "inactive: 13.5%"}, {"molecule": "Cc1ccc(C2(O)CCN(C(=O)c3cnn4cc(CCO)cnc34)CC2)nc1", "activity % (negative = inhibition)": "inactive: 10.4%"}, {"molecule": "COc1ccccc1CNC(=O)CC1COCCN1C(=O)c1cnccn1", "note": "(stereo not drawn)", "activity % (negative = inhibition)": "inactive: -10.7%"}, {"molecule": "CC(C)NC(=O)N1CCC2(CC1)CN(C(=O)Cc1c[nH]c3ccccc13)CCO2", "activity % (negative = inhibition)": "inactive: -5.48%"}, {"molecule": "CCn1cc(CN2CCN(C(=O)c3cccs3)CC2)ccc1=O", "activity % (negative = inhibition)": "inactive: 0.398%"}, {"molecule": "O=C1NCCCCCCN[C@H]2C[C@H](c3nc(-c4cnccn4)no3)C[C@@H]12", "activity % (negative = inhibition)": "inactive: 5.19%"}, {"molecule": "O=C(O)[C@H]1C[C@@H](C(=O)NCc2ccncc2)CN(C2CCOCC2)C1", "activity % (negative = inhibition)": "inactive: 8.65%"}, {"molecule": "CCC[C@H]1CN(C(=O)c2cc(=O)[nH]c3cc(F)ccc23)C[C@@H]1N", "activity % (negative = inhibition)": "inactive: 0%"}]}]}
